Measurements published in US7018457B2, “Azo metal-complexed dyes, ink jet ink compositions and ink jet printing methods” (Polaroid Corporation, priority 2002, dated 2006).

Assay: Colorimetry of images (Gretag MacBeth SMP-50 densitometer)
Format: physicochemical
Settings: Table VII; Epson 870 paper

Cc1nn(-c2ccc(S(=O)(=O)[O-])cc2)c2c1N=Nc1ccc(S(=O)(=O)[O-])cc1C(=O)[O][Co][O]2.O.[Na+].[Na+] [VI]
L*: 88 | a*: −8 | b*: 81
